# PubChem BioAssay AID1347076 (National Center for Advancing Translational Sciences (NCATS), 2019)
# Among all 400,000 compounds or so, about 13,000 (3.2%) were called active. Inconclusive means that the source gave no clear call. Such entries were picked first, then a sample of the others. Calls follow the shape of the dose curve; as a rule, active = well fitted cell-killing curve with a large enough effect; inconclusive = small, poorly fitted or top-dose-only effect, or effect the other way; inactive = flat fitted curve, though single readings scatter. Potencies beside an inconclusive call are fits to weak or partial responses and may not hold up.
# Assay: qHTS assay for MDR1-selective chemotherapeutics: Primary screen using the drug-selected MDR subline cells KB-V1; also: nearly all actives have a fitted effect of over 60% in size
# Conditions: KB-V1 MDR cells viability, CellTiter-Glo, 72 h; series mostly up to 46.1 µM
# How it was run: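 KB-V1 cells (P-gp-expressing MDR subline of KB-3-1) in phenol-red-free DMEM with 10% FBS were exposed to library compounds over a concentration series for 72 h at 37 degrees C. Viability read by CellTiter-Glo luminescence; concentration-effect curves fitted after normalization.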
# Potency is read from the fitted curve at half-maximal effect.
row,SMILES,Potency
1,CS(=O)(=O)N1CCN(c2ccc(NC(=O)c3ccc([N+](=O)[O-])o3)cc2)CC1,active: 18.4 µM
2,COc1ccc(CCNC(=O)CCCn2c(=S)[nH]c3ccsc3c2=O)cc1OC,inactive
3,COc1ccc(OC)c(C2C(C(=O)c3cc4ccccc4o3)=C(O)C(=O)N2c2cc(C)on2)c1 (centres undefined),active: 3.66 µM
4,CN(Cc1cc2ccccc2[nH]c1=O)S(=O)(=O)c1ccccc1,"inconclusive: 8.2 µM [cytotoxic, partial curve]"
5,CC(C)Sc1nc(N2CCOCC2)c2c3c(sc2n1)COC(C)(C)C3,"inconclusive: 29.1 µM [cytotoxic, single point]"
6,Cc1ccc2c(=O)cc(C(=O)Nc3ccc(S(=O)(=O)Nc4onc(C)c4C)cc3)oc2c1,"inconclusive: 5.8 µM [rising, partial curve]"
7,Cc1ccc(C(=O)COC(=O)c2cccc(NC(=O)c3ccc(Br)cc3)c2)cc1,"inconclusive: 3.66 µM [cytotoxic, full curve, poor fit]"
8,CC(=O)c1ccc(S(=O)(=O)Nc2ccc(Cl)c(S(=O)(=O)N3CCCC3)c2)cc1,"inconclusive: 29.1 µM [cytotoxic, single point]"
9,O=c1c2c([N+](=O)[O-])cc([N+](=O)[O-])cc2sn1Cc1ccccc1,"inconclusive: 29.1 µM [cytotoxic, single point]"
10,COc1ccccc1NC(=O)CSc1nc2sc(C)c(C)c2c(=O)n1C,"inconclusive: 29.1 µM [cytotoxic, single point]"
11,Cc1cc(OC(C)C(=O)NC2CCN(Cc3ccccc3)CC2)c2c(C)cc(=O)oc2c1 (centres undefined),"inconclusive: 1.84 µM [cytotoxic, partial curve, poor fit]"
12,CC12CCC(C(=O)Nc3ccc4c(c3)OCCO4)(OC1=O)C2(C)C (centres undefined),"inconclusive: 16.4 µM [cytotoxic, partial curve]"
13,Cc1ccc(C)c(OCC(=O)Nc2nc3ccc([N+](=O)[O-])cc3s2)c1C,"inconclusive: 9.2 µM [cytotoxic, partial curve, poor fit]"
14,Cc1ccc(S(=O)(=O)N2CCCC(c3nc4c(nnn4Cc4ccc5c(c4)OCCO5)c(=O)[nH]3)C2)cc1 (centres undefined),inactive
15,O=C(c1ccc(S(=O)(=O)Nc2ccccc2Cl)cc1)N1CCCC1,inactive
16,COc1cc(/C=C/c2nc3ccccc3c(=O)[nH]2)cc(OC)c1OC,inactive
17,CN(C1CCCCC1)S(=O)(=O)c1ccc2[nH]c(=O)oc2c1,"inconclusive: 10.3 µM [cytotoxic, partial curve]"
18,Cc1cccc(CS(=O)(=O)Cc2ccc(C(=O)NC(C)c3ccccc3)o2)c1 (centres undefined),"inconclusive: 16.4 µM [cytotoxic, single point]"
19,Cc1ccc2c(c1)-c1c(c(C(=O)NCCc3ccccc3)nn1C)CS2,inactive
20,CCCn1nc(NC(=O)c2cccs2)c2cc3cc(OC)ccc3nc21,"inconclusive: 16.4 µM [cytotoxic, single point]"
21,COc1cccc(CN2CC(C(=O)NCC3CCOCC3)CCC2=O)c1 (centres undefined),inactive
22,CCOC(=O)[C@]12CCCC=C1N(Cc1ccccc1)C(=O)[C@H](CC(=O)N1CCC(c3ccccc3)CC1)C2,"inconclusive: 18.4 µM [cytotoxic, partial curve, poor fit]"

row,SMILES,Potency
1,CCc1noc(C)c1C(=O)N1CCN(S(=O)(=O)c2ccc(Br)cc2)CC1,"inconclusive: 6.51 µM [cytotoxic, full curve, poor fit]"
2,O=C1C(Cl)=C(N2CCCCCC2)C(=O)N1c1ccccc1Cl,inactive
3,Cc1ccc(C(=O)Nc2nnc(NC(=S)Nc3ccccc3)s2)cc1,"inconclusive: 20.6 µM [cytotoxic, partial curve]"
4,O=S(=O)(c1ccc2c(c1)OCCO2)N1CCN(Cc2ccccc2)CC1,"inconclusive: 16.4 µM [cytotoxic, single point]"
5,CCCc1c(C(=O)N/N=C(\C)c2ccc3c(c2)OCO3)nnn1-c1nonc1N,inactive
6,CCCCN1C(=O)C(CC(=O)NC(c2ccccc2)c2ccccc2)CC(C(=O)N2CCCCCC2)=C1C (centres undefined),"inconclusive: 5.17 µM [cytotoxic, partial curve]"
7,O=C(NCc1cccnc1)C(=O)Nc1nc(-c2ccccc2)cs1,"inconclusive: 18.4 µM [cytotoxic, single point]"
8,O=[N+]([O-])c1cc(S(=O)(=O)N2CCCC2)ccc1NCCCN1CCOCC1,inactive
9,Cc1cccc(N(CC(=O)Nc2cccc(Cl)c2C)S(C)(=O)=O)c1C,inactive
10,CN=C1S/C(=C\c2ccc(N3CCCC3)c(F)c2)C(=O)N1C,"inconclusive: 29.1 µM [cytotoxic, single point]"
11,COc1ccc(/C=C/C(=O)c2ccc([N+](=O)[O-])o2)cc1OC,"inconclusive: 2.31 µM [cytotoxic, partial curve, poor fit]"
12,c1cc(CN2CCCCC2)cc(OCCCNc2nc3ccccc3s2)c1,"inconclusive: 8.2 µM [cytotoxic, partial curve]"
13,CN1CCN(c2ccc(Cl)cc2NC(=O)CC2OC(=O)c3ccccc32)CC1 (centres undefined),"inconclusive: 7.31 µM [cytotoxic, partial curve]"
14,COc1ccc(S(=O)(=O)N/N=C\c2ccc(OC)c(COc3ccc(C)cc3[N+](=O)[O-])c2)cc1,inactive
15,COc1cc2cc(C)nc(Cc3cccc4ccccc34)c2cc1OC,inactive
16,CCOC(=O)N1CCN(C(=O)C(=O)Nc2sc3c(c2C(N)=O)CC(C)(C)OC3)CC1,"inconclusive: 18.4 µM [rising, single point]"
17,Nn1c(Cc2cccc3ccccc23)nnc1SCc1ccccc1Cl,inactive
18,COc1ccc(S(=O)(=O)N2CCCCC2)cc1NC(=O)CN(C)C1CCCCC1,inactive
19,C#Cc1cccc(Nc2nc(NCc3ccccc3OC)nc3ccsc23)c1,"inconclusive: 2.91 µM [cytotoxic, full curve, poor fit]"
20,O=C1c2ccccc2C(=O)N1CCCc1nc2ccccc2c(=O)n1-c1cccnc1,inactive
21,CCOc1cc(CNCC(O)c2ccccc2)cc(Cl)c1OC (centres undefined),inactive
22,COc1ccc(OC)c(C(=O)/C=C/c2cccnc2)c1,"inconclusive: 29.1 µM [cytotoxic, single point]"

# Rewritten with bars between the fields: part of the list above.
row | SMILES | Potency
5 | CCCc1c(C(=O)N/N=C(\C)c2ccc3c(c2)OCO3)nnn1-c1nonc1N | inactive
7 | O=C(NCc1cccnc1)C(=O)Nc1nc(-c2ccccc2)cs1 | inconclusive: 18.4 µM [cytotoxic, single point]
15 | COc1cc2cc(C)nc(Cc3cccc4ccccc34)c2cc1OC | inactive
